Here are results for five molecules from paper PMC11695203, “A new peptide inhibitor of C1QBP exhibits potent anti‐tumour activity against triple negative breast cancer by impairing mitochondrial function and suppressing homologous recombination repair” (Clinical and Translational Medicine, 2025).

By UniProt entry, the sequences of proteins in these tests, tags left out. Residues count along the entry.
UniProt Q07021, residues 74-282: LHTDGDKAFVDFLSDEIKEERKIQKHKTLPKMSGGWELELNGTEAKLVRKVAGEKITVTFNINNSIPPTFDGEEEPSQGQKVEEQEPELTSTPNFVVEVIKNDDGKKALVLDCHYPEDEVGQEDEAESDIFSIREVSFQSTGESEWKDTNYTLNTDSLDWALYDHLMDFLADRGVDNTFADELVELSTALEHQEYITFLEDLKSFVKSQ

These are yes or no findings as the source states them, for the method shown. Binding seen in cells or lysates may run through a third protein. Here binding means that the protein was enriched with, or labelled near, the bait; the list need not be complete.

The assay concerns the target T1, biotin-labelled PDBAG1 (human (peptide identified in patients' adipose tissue)).
T1 sequence (peptide, biotin label (position not stated)): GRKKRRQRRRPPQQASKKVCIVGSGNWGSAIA
Briefly: affinity purification with mass spectrometry; biotin-labelled PDBAG1 on streptavidin magnetic beads, incubated overnight at 4°C with MDA-MB-231 / MDA-MB-468 lysate in IP lysis buffer; silver-stained gel strips (around 150 and 30 kDa) analysed by LC–MS; only the target purified.

Turning to “C1QBP (endogenous) (from UniProt Q07021 74-282)”, the binding result is “binds”.

B1: TCOF1 (endogenous) (protein, UniProt Q13428 1-1488)
chain: MAEARKRRELLPLIYHHLLRAGYVRAAREVKEQSGQKCFLAQPVTLLDIYTHWQQTSELGRKRKAEEDAALQAKKTRVSDPISTSESSEEEEEAEAETAKATPRLASTNSSVLGADLPSSMKEKAKAETEKAGKTGNSMPHPATGKTVANLLSGKSPRKSAEPSANTTLVSETEEEGSVPAFGAAAKPGMVSAGQADSSSEDTSSSSDETDVEGKPSVKPAQVKASSVSTKESPARKAAPAPGKVGDVTPQVKGGALPPAKRAKKPEEESESSEEGSESEEEAPAGTRSQVKASEKILQVRAASAPAKGTPGKGATPAPPGKAGAVASQTKAGKPEEDSESSSEESSDSEEETPAAKALLQAKASGKTSQVGAASAPAKESPRKGAAPAPPGKTGPAVAKAQAGKREEDSQSSSEESDSEEEAPAQAKPSGKAPQVRAASAPAKESPRKGAAPAPPRKTGPAAAQVQVGKQEEDSRSSSEESDSDREALAAMNAAQVKPLGKSPQVKPASTMGMGPLGKGAGPVPPGKVGPATPSAQVGKWEEDSESSSEESSDSSDGEVPTAVAPAQEKSLGNILQAKPTSSPAKGPPQKAGPVAVQVKAEKPMDNSESSEESSDSADSEEAPAAMTAAQAKPALKIPQTKACPKKTNTTASAKVAPVRVGTQAPRKAGTATSPAGSSPAVAGGTQRPAEDSSSSEESDSEEEKTGLAVTVGQAKSVGKGLQVKAASVPVKGSLGQGTAPVLPGKTGPTVTQVKAEKQEDSESSEEESDSEEAAASPAQVKTSVKKTQAKANPAAARAPSAKGTISAPGKVVTAAAQAKQRSPSKVKPPVRNPQNSTVLARGPASVPSVGKAVATAAQAQTGPEEDSGSSEEESDSEEEAETLAQVKPSGKTHQIRAALAPAKESPRKGAAPTPPGKTGPSAAQAGKQDDSGSSSEESDSDGEAPAAVTSAQVIKPPLIFVDPNRSPAGPAATPAQAQAASTPRKARASESTARSSSSESEDEDVIPATQCLTPGIRTNVVTMPTAHPRIAPKASMAGASSSKESSRISDGKKQEGPATQVSKKNPASLPLTQAALKVLAQKASEAQPPVARTQPSSGVDSAVGTLPATSPQSTSVQAKGTNKLRKPKLPEVQQATKAPESSDDSEDSSDSSSGSEEDGEGPQGAKSAHTLGPTPSRTETLVEETAAESSEDDVVAPSQSLLSGYMTPGLTPANSQASKATPKLDSSPSVSSTLAAKDDPDGKQEAKPQQAAGMLSPKTGGKEAASGTTPQKSRKPKKGAGNPQASTLALQSNITQCLLGQPWPLNEAQVQASVVKVLTELLEQERKKVVDTTKESSRKGWESRKRKLSGDQPAARTPRSKKKKKLGAGEGGEASVSPEKTSTTSKGKAKRDKASGDVKEKKGKGSLGSQGAKDEPEEELQKGMGTVEGGDQSNPKSKKEKKKSDKRKKDKEKKEKKKKAKKASTKDSESPSQKKKKKKKKTAEQTV
Turning to B1, the binding entry is “binds”.

B2: DHX57 (endogenous) (protein, UniProt Q6P158 1-1386)
chain: MSSSVRRKGKPGKGGGKGSSRGGRGGRSHASKSHGSGGGGGGGGGGGGGNRKASSRIWDDGDDFCIFSESRRPSRPSNSNISKGESRPKWKPKAKVPLQTLHMTSENQEKVKALLRDLQEQDADAGSERGLSGEEEDDEPDCCNDERYWPAGQEPSLVPDLDPLEYAGLASVEPYVPEFTVSPFAVQKLSRYGFNTERCQAVLRMCDGDVGASLEHLLTQCFSETFGERMKISEAVNQISLDECMEQRQEEAFALKSICGEKFIERIQNRVWTIGLELEYLTSRFRKSKPKESTKNVQENSLEICKFYLKGNCKFGSKCRFKHEVPPNQIVGRIERSVDDSHLNAIEDASFLYELEIRFSKDHKYPYQAPLVAFYSTNENLPLACRLHISEFLYDKALTFAETSEPVVYSLITLLEEESEIVKLLTNTHHKYSDPPVNFLPVPSRTRINNPACHKTVIPNNSFVSNQIPEVEKASESEESDEDDGPAPVIVENESYVNLKKKISKRYDWQAKSVHAENGKICKQFRMKQASRQFQSILQERQSLPAWEERETILNLLRKHQVVVISGMTGCGKTTQIPQFILDDSLNGPPEKVANIICTQPRRISAISVAERVAKERAERVGLTVGYQIRLESVKSSATRLLYCTTGVLLRRLEGDTALQGVSHIIVDEVHERTEESDFLLLVLKDIVSQRPGLQVILMSATLNAELFSDYFNSCPVITIPGRTFPVDQFFLEDAIAVTRYVLQDGSPYMRSMKQISKEKLKARRNRTAFEEVEEDLRLSLHLQDQDSVKDAVPDQQLDFKQLLARYKGVSKSVIKTMSIMDFEKVNLELIEALLEWIVDGKHSYPPGAILVFLPGLAEIKMLYEQLQSNSLFNNRRSNRCVIHPLHSSLSSEEQQAVFVKPPAGVTKIIISTNIAETSITIDDVVYVIDSGKMKEKRYDASKGMESLEDTFVSQANALQRKGRAGRVASGVCFHLFTSHHYNHQLLKQQLPEIQRVPLEQLCLRIKILEMFSAHNLQSVFSRLIEPPHTDSLRASKIRLRDLGALTPDERLTPLGYHLASLPVDVRIGKLMLFGSIFRCLDPALTIAASLAFKSPFVSPWDKKEEANQKKLEFAFANSDYLALLQAYKGWQLSTKEGVRASYNYCRQNFLSGRVLQEMASLKRQFTELLSDIGFAREGLRAREIEKRAQGGDGVLDATGEEANSNAENPKLISAMLCAALYPNVVQVKSPEGKFQKTSTGAVRMQPKSAELKFVTKNDGYVHIHPSSVNYQVRHFDSPYLLYHEKIKTSRVFIRDCSMVSVYPLVLFGGGQVNVQLQRGEFVVSLDDGWIRFVAASHQVAELVKELRCELDQLLQDKIKNPSIDLCTCPRGSRIISTIVKLVTTQ
For the molecule B2, the binding entry is listed as “binds”.

B3: SLC25A22 (endogenous) (protein, UniProt Q9H936 1-323)
chain: MADKQISLPAKLINGGIAGLIGVTCVFPIDLAKTRLQNQQNGQRVYTSMSDCLIKTVRSEGYFGMYRGAAVNLTLVTPEKAIKLAANDFFRHQLSKDGQKLTLLKEMLAGCGAGTCQVIVTTPMEMLKIQLQDAGRIAAQRKILAAQGQLSAQGGAQPSVEAPAAPRPTATQLTRDLLRSRGIAGLYKGLGATLLRDVPFSVVYFPLFANLNQLGRPASEEKSPFYVSFLAGCVAGSAAAVAVNPCDVVKTRLQSLQRGVNEDTYSGILDCARKILRHEGPSAFLKGAYCRALVIAPLFGIAQVVYFLGIAESLLGLLQDPQA
Turning to B3, the binding result is “binds”.

B4: MYBBP1 (endogenous) (protein, UniProt Q9BQG0 1-1328)
chain: MESRDPAQPMSPGEATQSGARPADRYGLLKHSREFLDFFWDIAKPEQETRLAATEKLLEYLRGRPKGSEMKYALKRLITGLGVGRETARPCYSLALAQLLQSFEDLPLCSILQQIQEKYDLHQVKKAMLRPALFANLFGVLALFQSGRLVKDQEALMKSVKLLQALAQYQNHLQEQPRKALVDILSEVSKATLQEILPEVLKADLNIILSSPEQLELFLLAQQKVPSKLKKLVGSVNLFSDENVPRLVNVLKMAASSVKKDRKLPAIALDLLRLALKEDKFPRFWKEVVEQGLLKMQFWPASYLCFRLLGAALPLLTKEQLHLVMQGDVIRHYGEHVCTAKLPKQFKFAPEMDDYVGTFLEGCQDDPERQLAVLVAFSSVTNQGLPVTPTFWRVVRFLSPPALQGYVAWLRAMFLQPDLDSLVDFSTNNQKKAQDSSLHMPERAVFRLRKWIIFRLVSIVDSLHLEMEEALTEQVARFCLFHSFFVTKKPTSQIPETKHPFSFPLENQAREAVSSAFFSLLQTLSTQFKQAPGQTQGGQPWTYHLVQFADLLLNHSHNVTTVTPFTAQQRQAWDRMLQTLKELEAHSAEARAAAFQHLLLLVGIHLLKSPAESCDLLGDIQTCIRKSLGEKPRRSRTKTIDPQEPPWVEVLVEILLALLAQPSHLMRQVARSVFGHICSHLTPRALQLILDVLNPETSEDENDRVVVTDDSDERRLKGAEDKSEEGEDNRSSESEEESEGEESEEEERDGDVDQGFREQLMTVLQAGKALGGEDSENEEELGDEAMMALDQSLASLFAEQKLRIQARRDEKNKLQKEKALRRDFQIRVLDLVEVLVTKQPENALVLELLEPLLSIIRRSLRSSSSKQEQDLLHKTARIFTHHLCRARRYCHDLGERAGALHAQVERLVQQAGRQPDSPTALYHFNASLYLLRVLKGNTAEGCVHETQEKQKAGTDPSHMPTGPQAASCLDLNLVTRVYSTALSSFLTKRNSPLTVPMFLSLFSRHPVLCQSLLPILVQHITGPVRPRHQACLLLQKTLSMREVRSCFEDPEWKQLMGQVLAKVTENLRVLGEAQTKAQHQQALSSLELLNVLFRTCKHEKLTLDLTVLLGVLQGQQQSLQQGAHSTGSSRLHDLYWQAMKTLGVQRPKLEKKDAKEIPSATQSPISKKRKKKGFLPETKKRKKRKSEDGTPAEDGTPAATGGSQPPSMGRKKRNRTKAKVPAQANGTPTTKSPAPGAPTRSPSTPAKSPKLQKKNQKPSQVNGAPGSPTEPAGQKQHQKALPKKGVLGKSPLSALARKKARLSLVIRSPSLLQSGAKKKAQVRKAGKP
For B4, the binding entry is “binds”.
